Experimental findings from article PMC6428284 are described below.

No constants are given. Whether binding was seen depends on the method and setting. For some of these results: A result given as binding can be weak or reduced; the word gives no strength.

Holding throughout (assay): two-hybrid; strain PJ69-4A (wild-type SMT3); GAL4BD-Yen1 or truncated/mutant derivatives as bait, GAL4AD fusions (pACTII) as prey; ten-fold serial dilutions spotted on SC-His and SC-Ade plates, 3 days at 30°C; library screen and directed tests
The target in test [1] is T1, Gal4 DNA binding domain-Yen1 (full-length YEN1 in pAS1, plasmid pJ90) (S. cerevisiae) (UniProt P40028).
T1 sequence: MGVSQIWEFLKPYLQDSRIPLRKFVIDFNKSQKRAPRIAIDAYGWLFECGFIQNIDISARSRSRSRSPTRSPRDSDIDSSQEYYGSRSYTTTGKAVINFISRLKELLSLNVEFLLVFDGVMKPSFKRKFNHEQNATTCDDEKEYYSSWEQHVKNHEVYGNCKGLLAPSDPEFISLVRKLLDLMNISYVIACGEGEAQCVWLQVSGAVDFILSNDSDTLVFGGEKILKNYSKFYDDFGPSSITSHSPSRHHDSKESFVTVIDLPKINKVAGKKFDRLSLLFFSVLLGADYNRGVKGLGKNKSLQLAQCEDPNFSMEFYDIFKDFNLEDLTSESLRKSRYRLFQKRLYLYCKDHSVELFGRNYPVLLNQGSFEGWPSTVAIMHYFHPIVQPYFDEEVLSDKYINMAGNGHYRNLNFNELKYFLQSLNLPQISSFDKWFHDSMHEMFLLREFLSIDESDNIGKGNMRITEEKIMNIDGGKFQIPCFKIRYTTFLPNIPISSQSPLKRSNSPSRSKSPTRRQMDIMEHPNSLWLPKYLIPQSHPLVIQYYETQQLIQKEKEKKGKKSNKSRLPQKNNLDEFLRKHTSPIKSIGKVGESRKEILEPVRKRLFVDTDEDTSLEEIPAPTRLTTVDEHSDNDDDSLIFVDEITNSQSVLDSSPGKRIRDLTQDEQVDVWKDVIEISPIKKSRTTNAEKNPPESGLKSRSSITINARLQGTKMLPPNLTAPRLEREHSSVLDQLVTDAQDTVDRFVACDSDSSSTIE

Test [2] deals with T2, GBD-Yen1 (1–690) (S. cerevisiae) (UniProt P40028).
T2 sequence: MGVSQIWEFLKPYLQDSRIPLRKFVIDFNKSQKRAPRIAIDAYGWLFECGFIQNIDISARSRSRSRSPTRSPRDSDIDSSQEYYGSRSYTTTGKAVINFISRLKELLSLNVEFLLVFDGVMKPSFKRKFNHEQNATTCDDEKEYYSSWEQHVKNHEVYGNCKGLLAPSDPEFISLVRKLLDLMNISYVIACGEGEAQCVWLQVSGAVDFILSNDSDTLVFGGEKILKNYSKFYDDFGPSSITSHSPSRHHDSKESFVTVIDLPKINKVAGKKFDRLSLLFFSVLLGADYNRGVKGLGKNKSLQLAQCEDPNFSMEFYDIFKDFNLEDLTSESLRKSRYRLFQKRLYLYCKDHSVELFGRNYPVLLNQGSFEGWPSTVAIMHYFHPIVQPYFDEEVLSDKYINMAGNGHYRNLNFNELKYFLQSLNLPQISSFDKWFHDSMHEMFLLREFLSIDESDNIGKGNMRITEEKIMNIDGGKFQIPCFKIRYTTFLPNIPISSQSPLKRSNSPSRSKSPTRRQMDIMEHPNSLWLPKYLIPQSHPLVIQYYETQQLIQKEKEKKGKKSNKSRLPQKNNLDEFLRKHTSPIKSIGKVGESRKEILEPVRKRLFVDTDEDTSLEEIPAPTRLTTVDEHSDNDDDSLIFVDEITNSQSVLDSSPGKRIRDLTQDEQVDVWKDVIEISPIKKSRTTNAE

Test [3] addresses T3, GBD-Yen1 (1–638) (S. cerevisiae) (UniProt P40028).
T3 sequence: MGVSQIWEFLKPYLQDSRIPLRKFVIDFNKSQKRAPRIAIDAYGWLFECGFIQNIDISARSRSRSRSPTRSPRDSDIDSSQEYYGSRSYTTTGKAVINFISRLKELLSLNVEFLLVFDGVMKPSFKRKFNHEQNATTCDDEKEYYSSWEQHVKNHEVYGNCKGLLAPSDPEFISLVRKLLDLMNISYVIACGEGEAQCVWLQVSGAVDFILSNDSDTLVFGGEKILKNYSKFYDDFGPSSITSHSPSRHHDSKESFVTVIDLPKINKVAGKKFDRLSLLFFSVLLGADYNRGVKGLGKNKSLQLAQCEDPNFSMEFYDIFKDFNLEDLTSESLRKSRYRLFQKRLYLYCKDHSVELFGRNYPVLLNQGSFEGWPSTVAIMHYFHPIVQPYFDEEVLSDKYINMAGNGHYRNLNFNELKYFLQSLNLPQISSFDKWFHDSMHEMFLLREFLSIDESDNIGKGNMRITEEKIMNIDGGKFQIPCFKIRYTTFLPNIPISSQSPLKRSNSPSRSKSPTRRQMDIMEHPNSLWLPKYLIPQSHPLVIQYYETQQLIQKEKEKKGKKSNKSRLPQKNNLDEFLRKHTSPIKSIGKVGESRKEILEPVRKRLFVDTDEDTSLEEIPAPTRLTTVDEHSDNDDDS

The target of test [4] is GBD-Yen1 C-terminus (construct of S2 Fig) (S. cerevisiae).

Regarding “GAL4AD-Uls1 336–599 (ΔIII ΔLDT) (from UniProt Q08562) (domain or fragment)”, the binding result in test [1] is given as “binds”.

As for “GAL4AD-Uls1 336–599 SIM4 (ΔILV) (from UniProt Q08562) (domain or fragment)”, the binding entry in test [1] is on record as “binds”.

Consider “GAL4AD-Uls1 336–599 SIM2 (ΔIII) (from UniProt Q08562) (domain or fragment)”, for which the binding entry in test [1] was “binds”.

Consider “GAL4AD-Uls1 336–599 SIMs triple mutant (ΔIII ΔLDT ΔILV) (from UniProt Q08562) (domain or fragment)”, for which the values for the binding entry in test [1], in test [2] and in test [3] were “binds weakly”, “binds” and “no binding”, respectively.

B1: GAL4AD-Uls1 336–599 (domain or fragment, UniProt Q08562 336-599)
chain: GDFADNKILKRPILPSKNMDHTTHNSHDSEQKNSSIIILSDEDESGAGINDIESPLKVSEPNTADALRSSVPEVISLLDLPNIDLNNSVIKEASGSNSIPTSETDAQSSSSSVLQGTIMTEQATQSSQHECNSSLDTLKKNHQKLLKDLNSRESELRNALSCCKTNSEILRRKLSRREKEVSDAEKHWQLLLTSMARGGRTISSTQQILVDEAENQLNKLKEKRQLTKSKLDSINLKMYNYNEQWKSFVHSKNINLQKSLAALE
On to B1, for which, in test [4], the binding entry is listed as “binds”.
